Test results from doi:10.1101/778639.

Amino acid sequences for entries named in this document (tags omitted).
UniProt Q9Y812: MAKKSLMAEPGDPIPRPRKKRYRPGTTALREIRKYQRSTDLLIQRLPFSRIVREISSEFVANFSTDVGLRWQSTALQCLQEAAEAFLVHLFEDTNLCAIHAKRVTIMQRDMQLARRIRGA

Target: GFP-tagged CENP-A^Cnp1 (S. pombe) (UniProt Q9Y812)
Assay: affinity purification with mass spectrometry

binding	Binder
binds	Sim3 (NASP) (protein, UniProt Q9USQ4 1-396) MSSDTKTLENSKGNSATDADTKNPSSSDSRAIEQLVTQGNMAYAQKNYEEAVDKYGQALMQSESIHGSESLENRNVLWLYGKSLFQIAIENSQVLGNALGAKESVSQATESFEEPEAIGSFTFSGQKIENKYTVNEENSSIAHPEKESEEKETNEASPASEEDEDDFNVAWEVLDLTRVMQSKAVDAYPDSKDEKIRLADIYDLLGELSLEIENFSQASQDLKTALEWKEKVYNVSNNTLLSEAHYKLALALEFTNPEDPSNKSRACEHVEKAAEILKNVLNERENEVTDKKGKGKQKAEESTLTSDLENLREMLSELEQKTLDLKHGAPSLEEAVMSKMHESSLLSKDSSSLAQAVAEAVKNANDLGGLVKRKRTKQEVTSSSQKEGPKDKKKKD
binds	Scm3 (HJURP) (protein, UniProt Q9HDY7 1-336) MCNRQPKAVDLPPNYSCPHLLSFQSVEFNTNPTACDDVFCKRIESEKKYNDFLESLFKKYGRDTSDIADEVDLATGEIIVNNGHLEALKTKDDIWDPTFNNLEISASNGYEKKLDSSIGNPGEKAVSPVHIEDFQSPQIYKFKNLSLRDEMVSDCVFADEVPLASLFVENVCNETIPSQSCVRLKINDKTRKVDASALEKKSCLLPNSSGTLTDQRGLDTIKHKSIEQNEILHVISDTLSSPRRRNPLLSSPKTPLRRSFSKSKVRNSNSTKRRNFISLISMISPRPNLSTHHFNLGFQPLSQQTSFSGSSTQNPHSSSTCKKAFCFQCISESKKC

These are yes or no findings as the source states them, for the method shown. In cells and extracts the contact can be indirect. Here binding means that the protein was enriched with, or labelled near, the bait; the list need not be complete.
